Test results reported in patent US10201521B2, “Use of substituted hexitols including dianhydrogalactitol and analogs to treat neoplastic disease and cancer stem and cancer stem cells including glioblastoma multiforme and medulloblastoma” (Del Mar Pharmaceuticals (BC) Ltd., priority 2012, dated 2019).
“Also recorded” adds a separate entry of the source. At least one compound was matched to its structure with a doubt left.

Assays:
BT74 cancer stem cells = assay: Neurosphere formation, BT74 cancer stem cells; format: cell-based
[1] = system: primary adult GBM cells isolated fresh from BCCH; assay: Growth of primary adult GBM cells; format: cell-based

Cn1nnc2c(C(N)=O)ncn2c1=O [TMZ, temozolomide, reference compound]
sensitivity of BT74 cells (BT74 cancer stem cells): do not show significant sensitivity | inhibition of growth of primary adult GBM cells [1]: essentially has no effect; also recorded: completely resistant
